Measurements published in article PMC8162347, “Bolaamphiphilic Bis-Dehydropeptide Hydrogels as Potential Drug Release Systems” (Gels, 2021).
Where “and” joins values, the source holds several entries; their conditions need not be identical. Equal values may be shown once.

Assay: Sustained release assay of model cargo from hydrogels
Settings: 1.5 mL water layered on top, after 6 days, mean of triplicate; for Ciprofloxacin Released (%): ciprofloxacin (0.2 nM) in 1 mL hydrogel, analytical HPLC; for MO Released (%): methyl orange (0.2 nM) in 1 mL hydrogel, absorbance 465 nm; for MB Released (%): methylene blue (0.1 nM) in 1 mL hydrogel, absorbance 666 nm
Description: Hydrogels containing cationic, anionic, or zwitterionic model drugs were prepared using the same conditions described in Section 2.2 but with the water component (1 mL) being replaced by a methylene blue solution, methyl orange solution, or ciprofloxacin solution. In a modified version of the method described by Abraham et al., water was carefully layered on top of the hydrogel surface. Then, the percentage release of model drug was recorded versus time, over 6 days, through UV absorption measurements or by HPLC and then subsequently fitted to a standard calibration curve (Figure S10 in Supplementary Information). The experiments were also assessed visually (Figure 9). […] In the studies involving the release of methyl orange, a clearly visible release of the anionic dye into the layered water solution was observed from the three hydrogels after several days (Figure 9B,D,F centre). The results for the release of methyl orange were also confirmed quantitatively by UV absorption measurements. Hydrogelators 1 and 3, which contain a phenylalanine residue, release nearly 60% of the anionic methyl orange cargo, whereas hydrogel 2, containing a tyrosine residue, released more than 90%. […] Ciprofloxacin was included as an overall neutral cargo. In experiments involving hydrogels of compounds 1–3 containing ciprofloxacin, the amount of ciprofloxacin present in the above water layer was determined by HPLC at various time-points. Hydrogelators 1, 2, and 3 release 32%, 58%, and 20% of their ciprofloxacin cargo, respectively (Table 4) (Figure S11 in Supplementary Information). As observed for methyl orange, the hydrogel that releases the greatest amount of ciprofloxacin is the hydrogel obtained from compound 2 (Table 4, Figure S11 in Supplementary Information).
To quantitatively evaluate the drug release from hydrogels 1–3, several mathematical models were tested to see which one fits the tested hydrogels. The Korsmeyer–Peppas model is the preferred model for polymeric systems. Korsmeyer described a simple relationship that described drug release from a polymeric system that includes both the diffusion and erosion of the polymer chain. The following equation describes the Korsmeyer–Peppas model: Mt/M = Kt^n
Hydrogels of 1, 2, and 3 were prepared as described in Section 4.2 to form 1 mL hydrogels containing the same concentration of the hydrogelators described above and the appropriate cargo (methylene blue ([…]), methyl orange (0.2 nM), or ciprofloxacin (0.2 nM)), in a slightly modified version of the procedure described by Abraham et al.. After allowing to stand overnight, 1.5 mL of water was carefully added to the surface of the hydrogels. Aliquots of the layered solution (100 μL) were removed at 1 h, 2 h, 3 h, 4 h, 6 h, 24 h, 72 h, and 6 days from the time the water was initially layered on top of the hydrogel. After removing each aliquot, the volume water was immediately replaced by an equal volume of water. The concentration of methylene blue or methyl orange in each aliquot was determined by measuring the absorbance at λmax of the dye (666 nm for methylene blue and 465 nm for methyl orange) using a microplate reader and then converting the value to percentage release (using a standard calibration curve). The concentration of ciprofloxacin in each aliquot was determined using analytical HPLC, where the integrated peak area was converted to a percentage release (using a standard calibration curve). Each experiment was performed in triplicate, and the mean percentage cargo release was plotted against time.

Row | Compound | Ciprofloxacin Released (%) | MO Released (%) | MB Released (%)
1 | O=C(O)/C(=C/c1ccccc1)NC(=O)[C@H](Cc1ccccc1)NC(=O)c1ccc2cc(C(=O)N[C@@H](Cc3ccccc3)C(=O)N/C(=C\c3ccccc3)C(=O)O)ccc2c1 [Compound 3] | 20% and 20.3% | ~60% and 60.3% | 9.55%
2 | O=C(O)/C(=C/c1ccccc1)NC(=O)[C@H](Cc1ccc(O)cc1)NC(=O)c1ccc(C(=O)N[C@@H](Cc2ccc(O)cc2)C(=O)N/C(=C\c2ccccc2)C(=O)O)cc1 [Compound 2] | 58% and 58.8% | – | 7.63%
3 | O=C(O)/C(=C/c1ccccc1)NC(=O)[C@H](Cc1ccccc1)NC(=O)c1ccc(C(=O)N[C@@H](Cc2ccccc2)C(=O)N/C(=C\c2ccccc2)C(=O)O)cc1 [Compound 1] | 32% and 32.3% | ~60% and 60.9% | 12.1%
